According to patent US8354400B2, “Benzoxazole compounds and methods of use” (Eisai R&D Co., Ltd., priority 2008, dated 2013):
The name of at least one read-out is uncertain. Some of these results come from one statement about several compounds together.

tested on: serum IL-6 after s.c. oligo CpG 1668 challenge; assay: In vivo short term CpG stimulation assay (serum IL-6); parameters: species or system mice; settings: 1.5 hours after oral administration of 20 mg/kg
Procedure: Short Term CpG Stimulation Assay: Compounds identified as having potency in the HEK/TLR9 and splenocyte CpG 1668 assays described in Example 9, above, were tested in an in vivo short term CpG stimulation assay. Mice were orally administered compound in water, and challenged within 90 minutes by subcutaneous (s.c.) injection of 30 micrograms of oligo CpG 1668. Two hours later serum was taken and assayed for IL-6 using ELISA analysis. Results from assays repeated on different dates are set forth as multiple numbers separated by commas.

With `COC[C@H]1CCCN1CCCOc1ccc(-c2nc3ccc(OCCCN4CCC[C@@H]4COC)cc3o2)cc1` [Compound 26] the “suppression of IL-6 (Table 3)” value was “at least 69%”.

same assay, conditions: mice, oral in water, 20 mg/kg, s.c. 30 micrograms oligo CpG 1668 within 90 minutes, serum two hours later; repeat assays separated by commas

In order of rising “Percent short-term IL-6 suppression” value:
1. c1cc(CN2CCOCC2)ccc1CNCCCOc1ccc(-c2nc3ccc(OCCCNCc4ccc(CN5CCOCC5)cc4)cc3o2)cc1 [Compound 13]  44%
2. CN(C)[C@@H]1CCN(CCCOc2ccc(-c3nc4ccc(OCCCN5CC[C@@H](N(C)C)C5)cc4o3)cc2)C1 [Compound 16]  45%
3. COC[C@H]1CCCN1CCCOc1ccc(-c2nc3ccc(OCCCN4CCC[C@@H]4COC)cc3o2)cc1 [Compound 26]  69%
4. c1cc(-c2nc3ccc(OCCCN4CCCC4)cc3o2)ccc1OCCCN1CCCC1 [Compound 23]  75%
5. c1cc(-c2nc3ccc(OCCCN4CCCCC4)cc3o2)ccc1OCCCN1CCCCC1 [Compound 30]  79%
